Measurements reported in PubChem BioAssay AID1259254 (NCATS, 2017).

Purpose: 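Finding genes that stop cells copying their DNA twice in one cycle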 (primary screen)
System: human HCT116 colorectal cancer cells
Knock-down reagent: single siRNA against human genes
Timing: 3 days
Measurement: 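Imaged Hoechst DNA stain sorts each cell into a cycle phase by DNA amount; per plate, G2 fraction set to 0% for non-targeting and 100% for GMNN siRNA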
Scale: G2 robust z-score and G2 cells, % of GMNN control: higher = more G2 cells, more excess DNA replication
Rule for the call: 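Active siRNAs have a G2 robust z of 5 or more median absolute deviations over the median, which in these data means about 38% or higher of GMNN control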
This is a random part of about 59,000 deposited reagents. Of all reagents, about 1,550 (2.6%) were called active. 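G2 share is only a proxy for re-replication; each gene was hit by three separate siRNAs, and active genes were retested.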 Reagents against one gene are numbered here. Not all columns of the deposit are shown. Not stated in the record: the amount of reagent.

target gene	siRNA no.	G2 robust z-score	G2 cells, % of GMNN control	call
PKP4 (GeneID 8502)	1	-1.12	-4.9	inactive
PKP4 (GeneID 8502)	2	1.56	13.9	inactive
PKP4 (GeneID 8502)	3	-0.473	-0.361	inactive
CLCC1 (GeneID 23155)	1	4.99	38.1	inactive
CLCC1 (GeneID 23155)	2	0.0961	3.64	inactive
CLCC1 (GeneID 23155)	3	-0.702	-1.97	inactive
TNNT3 (GeneID 7140)	1	-1.54	-7.85	inactive
TNNT3 (GeneID 7140)	2	-0.872	-3.17	inactive
TNNT3 (GeneID 7140)	3	-0.585	-1.15	inactive
FASTK (GeneID 10922)	1	3.26	25.9	inactive
FASTK (GeneID 10922)	2	0.254	4.76	inactive
FASTK (GeneID 10922)	3	0.108	3.73	inactive
TRIM15 (GeneID 89870)	1	-1.22	-5.63	inactive
TRIM15 (GeneID 89870)	2	-0.342	0.564	inactive
TRIM15 (GeneID 89870)	3	1.13	10.9	inactive
WASHC3 (GeneID 51019)	1	0.251	4.73	inactive
WASHC3 (GeneID 51019)	2	-0.782	-2.53	inactive
WASHC3 (GeneID 51019)	3	0.548	6.83	inactive
ZBTB5 (GeneID 9925)	1	-0.965	-3.82	inactive
ZBTB5 (GeneID 9925)	2	-1.03	-4.27	inactive
ZBTB5 (GeneID 9925)	3	-0.608	-1.31	inactive
C11orf16 (GeneID 56673)	1	4.11	31.9	inactive
C11orf16 (GeneID 56673)	2	1.77	15.4	inactive
C11orf16 (GeneID 56673)	3	0.602	7.2	inactive
FCGR3A (GeneID 2214)	1	-0.696	-1.93	inactive
FCGR3A (GeneID 2214)	2	-1.17	-5.24	inactive
FCGR3A (GeneID 2214)	3	1.64	14.5	inactive
ZNF221 (GeneID 7638)	1	-0.704	-1.99	inactive
ZNF221 (GeneID 7638)	2	-0.381	0.284	inactive
ZNF221 (GeneID 7638)	3	0.186	4.28	inactive
KCNIP4 (GeneID 80333)	1	0.0492	3.31	inactive
KCNIP4 (GeneID 80333)	2	2.5	20.5	inactive
KCNIP4 (GeneID 80333)	3	1.57	14	inactive
ORAI2 (GeneID 80228)	1	-1.31	-6.22	inactive
ORAI2 (GeneID 80228)	2	0.152	4.03	inactive
ORAI2 (GeneID 80228)	3	-0.194	1.6	inactive
ZRSR2 (GeneID 8233)	1	-0.532	-0.775	inactive
ZRSR2 (GeneID 8233)	2	-0.594	-1.21	inactive
ZRSR2 (GeneID 8233)	3	-0.648	-1.59	inactive
BCLAF1P1 (GeneID 728366)	1	-0.944	-3.68	inactive
BCLAF1P1 (GeneID 728366)	2	-0.462	-0.281	inactive
BCLAF1P1 (GeneID 728366)	3	3.26	25.9	inactive
NUP107 (GeneID 57122)	1	-0.332	0.634	inactive
NUP107 (GeneID 57122)	2	4.86	37.2	inactive
NUP107 (GeneID 57122)	3	0.0625	3.41	inactive
LOC642452 (retired record) (GeneID 642452)	1	-0.045	2.65	inactive
LOC642452 (retired record) (GeneID 642452)	2	2.36	19.5	inactive
LOC642452 (retired record) (GeneID 642452)	3	-0.747	-2.29	inactive
MRPS15 (GeneID 64960)	1	-0.0738	2.45	inactive
MRPS15 (GeneID 64960)	2	-0.152	1.9	inactive
MRPS15 (GeneID 64960)	3	0.684	7.78	inactive
GGTLC1 (GeneID 92086)	1	-0.233	1.33	inactive
GGTLC1 (GeneID 92086)	2	4.68	35.9	inactive
GGTLC1 (GeneID 92086)	3	1.32	12.3	inactive

Records listed so far whose target name begins with B or b (3):
target gene	siRNA no.	G2 robust z-score	G2 cells, % of GMNN control	call
BCLAF1P1 (GeneID 728366)	1	-0.944	-3.68	inactive
BCLAF1P1 (GeneID 728366)	2	-0.462	-0.281	inactive
BCLAF1P1 (GeneID 728366)	3	3.26	25.9	inactive

More records follow.
target gene	siRNA no.	G2 robust z-score	G2 cells, % of GMNN control	call
SLC15A3 (GeneID 51296)	1	-0.848	-3	inactive
SLC15A3 (GeneID 51296)	2	-0.992	-4.01	inactive
SLC15A3 (GeneID 51296)	3	2.5	20.6	inactive
GALNT18 (GeneID 374378)	1	-1.31	-6.27	inactive
GALNT18 (GeneID 374378)	2	1.01	10	inactive
GALNT18 (GeneID 374378)	3	0.258	4.78	inactive
FAM162B (GeneID 221303)	1	0.534	6.72	inactive
FAM162B (GeneID 221303)	2	-0.459	-0.259	inactive
FAM162B (GeneID 221303)	3	-0.177	1.72	inactive
ZNF446 (GeneID 55663)	1	4.25	32.9	inactive
ZNF446 (GeneID 55663)	2	0.392	5.72	inactive
ZNF446 (GeneID 55663)	3	0.198	4.36	inactive
FLCN (GeneID 201163)	1	0.885	9.2	inactive
FLCN (GeneID 201163)	2	-0.688	-1.88	inactive
FLCN (GeneID 201163)	3	-0.346	0.534	inactive
RNF151 (GeneID 146310)	1	1.52	13.7	inactive
RNF151 (GeneID 146310)	2	-0.71	-2.03	inactive
RNF151 (GeneID 146310)	3	-0.908	-3.42	inactive
CYP4F3 (GeneID 4051)	1	-0.0186	2.84	inactive
CYP4F3 (GeneID 4051)	2	2.05	17.4	inactive
CYP4F3 (GeneID 4051)	3	-0.486	-0.45	inactive
IL20RA (GeneID 53832)	1	-1.19	-5.39	inactive
IL20RA (GeneID 53832)	2	-0.752	-2.33	inactive
IL20RA (GeneID 53832)	3	1.7	14.9	inactive
PFKL (GeneID 5211)	1	0.428	5.98	inactive
PFKL (GeneID 5211)	2	-0.022	2.81	inactive
PFKL (GeneID 5211)	3	-1.2	-5.48	inactive
FANCL (GeneID 55120)	1	2.15	18.1	inactive
FANCL (GeneID 55120)	2	0.225	4.55	inactive
FANCL (GeneID 55120)	3	-1.07	-4.55	inactive
GLB1 (GeneID 2720)	1	-1.02	-4.22	inactive
GLB1 (GeneID 2720)	2	4.09	31.7	inactive
GLB1 (GeneID 2720)	3	-0.486	-0.449	inactive
